Counter-ions that a name gives are not always drawn. Some of the results follow. Single values are uncertain, as repeats are few or missing.
Tested on: Drosophila melanogaster DPAGT1 (Alg7) RNAi eye model
Experiment: eye size Z-score vs DMSO-treated DPAGT1 model flies; higher = larger eye (suppression of DPAGT1 phenotype)
Conditions: 5 uM

SMILES | eye size Z-score | eye size Z-score (female)
CNC1(C)C2CCC(C2)C1(C)C (stereo not drawn) [Mecamylamine hydrochloride] | 0.39 | 
CC(=C(CCO)SSCC1CCCO1)N(C=O)Cc1cnc(C)nc1N (stereo in doubt) [Fursultiamine hydrochloride] | 0.57 | 
CCC(C)(CN(C)C)OC(=O)c1ccccc1 (stereo not drawn) [Amyleine hydrochloride] | 1.15 | 
C=C(NC(=O)C(=C)NC(=O)c1csc(C2=N[C@@H]3c4csc(n4)[C@H]4NC(=O)c5csc(n5)[C@H]([C@](C)(O)[C@@H](C)O)NC(=O)[C@H]5CSC(=N5)/C(=C/C)NC(=O)[C@H]([C@@H](C)O)NC(=O)c5csc(n5)[C@]3(CC2)NC(=O)[C@H](C)NC(=O)C(=C)NC(=O)[C@H](C)NC(=O)[C@H]([C@@H](C)CC)N[C@@H]2C=Cc3c([C@H](C)O)cc(nc3[C@H]2O)C(=O)O[C@@H]4C)n1)C(N)=O [Thiostrepton] | 0.46 | 
Cn1c(=O)c2c(ncn2CC(O)CO)n(C)c1=O (stereo not drawn) [Diprophylline] | -0.04 | 
NC(=O)c1cccnc1 [Nicotinamide] | -1.51 | 
CC(C)(Oc1ccc(C2CC2(Cl)Cl)cc1)C(=O)O (stereo not drawn) [Ciprofibrate] | 0.32 | 
NS(=O)(=O)c1cc2c(cc1Cl)NC(Cc1ccccc1)NS2(=O)=O (stereo not drawn) [Benzylhydrochlorothiazide] | 0.85 | 
CC1=C(C(=O)O)N2C(=O)[C@@H](NC(=O)[C@H](N)c3ccc(O)cc3)[C@H]2SC1 [Cefadroxil] | -0.88 | 
C=CCN1CCCC1CNC(=O)c1cc2nn[nH]c2cc1OC (stereo not drawn) [Alizapride hydrochloride] | 1.06 | 
CC(C)(C)NCC(O)COc1cccc2c1CC(O)C(O)C2 (stereo not drawn) [Nadolol] | 0.19 | 
CCOCCn1c(N2CCCN(C)CC2)nc2ccccc21 [Emedastine difumarate] |  | -1.12
Cc1cccn2c(=O)c(-c3nnn[nH]3)cnc12 [Pemirolast potassium] | 0.15 | 
CC[C@H](C)C(=O)O[C@H]1C[C@H](O)C=C2C=C[C@H](C)[C@H](CC[C@@H](O)C[C@@H](O)CC(=O)O)[C@H]21 [Pravastatin] | 0.06 | 
CC1=C(C(=O)O)N2C(=O)[C@@H](NC(=O)[C@H](N)c3ccccc3)[C@H]2SC1 [Cephalexin monohydrate] | 0.26 | 
Cc1nccn1CC1CCc2c(c3ccccc3n2C)C1=O (stereo not drawn) [Ondansetron hydrochloride] | 0.77 | 
CC(=O)NC[C@H]1CN(c2ccc(N3CCOCC3)c(F)c2)C(=O)O1 [Linezolid] | 0.99 | 
Nc1nnc(-c2cccc(Cl)c2Cl)c(N)n1 [Lamotrigine] | 0.39 | 
Clc1cc(Cl)c(OCC#CI)cc1Cl [Haloprogin] |  | 0.06
Nc1nc(=O)[nH]cc1F [Flucytosine] | -0.63 | 
Cc1cccc(C)c1NC(=O)CN1CCN(CCCC(c2ccc(F)cc2)c2ccc(F)cc2)CC1 [Lidoflazine] | -0.8 | 
NC[C@H]1O[C@H](O[C@H]2[C@H](O)[C@@H](O[C@H]3O[C@H](CO)[C@@H](O)[C@H](N)[C@H]3O)[C@H](N)C[C@@H]2N)[C@H](N)[C@@H](O)[C@@H]1O [Kanamycin B] | -0.67 | 
C=C1[C@H](CO)[C@@H](O)C[C@@H]1n1cnc2c(=O)[nH]c(N)nc21 [Entecavir] | 0.53 | 
CC(=O)O[C@]1(C(C)=O)CC[C@H]2[C@@H]3C=C(C)C4=CC(=O)CC[C@]4(C)[C@H]3CC[C@@]21C [Megestrol acetate] | -1.14 | 
CC/C=C(\C(=O)N[C@@H]1C(=O)N2C(C(=O)OCOC(=O)C(C)(C)C)=C(COC(N)=O)CS[C@H]12)c1csc(N)n1 [Cefcapene pivoxil hydrochloride monohydrate] | 0.8 | 

SMILES | eye size Z-score | eye size Z-score (female)
Cc1c(F)c(N2CCNC(C)C2)cc2c1c(=O)c(C(=O)O)cn2C1CC1 (stereo not drawn) [Grepafloxacin] | -0.18 | 
C/C(O)=C(\C#N)C(=O)Nc1ccc(C(F)(F)F)cc1 [Teriflunomide] | 0.12 | 
N=C(N=C(N)N)N1CCOCC1 [Moroxidine hydrochloride] | 0.25 | 
CC(=O)OCC(=O)[C@@]12OC3(CCCC3)O[C@@H]1C[C@H]1[C@@H]3CCC4=CC(=O)C=C[C@]4(C)[C@@]3(F)[C@@H](O)C[C@@]12C [Amcinonide] | 0.23 | 
CCCC(=O)Nc1ccc(OCC(O)CNC(C)C)c(C(C)=O)c1 (stereo not drawn) [Acebutolol hydrochloride] | 0.92 | 
CC(=O)Nc1ccc(OCC(O)CNC(C)C)cc1 (stereo not drawn) [Practolol] | 0.31 | 
CN1[C@@H]2CC[C@H]1C[C@@H](OC(c1ccccc1)c1ccccc1)C2 [Benztropine mesylate] | 1.02 | 
O=C(Nc1ccccc1)OCC(CN1CCCCC1)OC(=O)Nc1ccccc1 (stereo not drawn) [Diperodon hydrochloride] | -0.76 | 
CCCCC1C(=O)N(c2ccccc2)N(c2ccccc2)C1=O [Phenylbutazone] | 0.33 | 
CCCc1nc2c(C)cc(-c3nc4ccccc4n3C)cc2n1Cc1ccc(-c2ccccc2C(=O)O)cc1 [Telmisartan] | 0.42 | 
COCCCOc1cc(C[C@@H](C[C@H](N)[C@@H](O)C[C@H](C(=O)NCC(C)(C)C(N)=O)C(C)C)C(C)C)ccc1OC [Aliskiren hemifumarate] | 0.25 | 
CCCCOC(=O)c1ccc(O)cc1 [Butylparaben] | -1.54 | 
CC(=O)/N=c1/sc(S(N)(=O)=O)nn1C [Methazolamide] | 0.15 | 
N=C(N)N1CCc2ccccc2C1 [Debrisoquin sulfate] | -0.56 | 
C[C@H](O)[C@H](O)[C@H]1CNc2[nH]c(N)nc(=O)c2N1 [Sapropterin dihydrochloride] | -0.05 | 
O=C(O)Cc1cc(I)c(Oc2ccc(O)c(I)c2)c(I)c1 [Tiratricol] | -0.72 | 
COCCCOc1ccnc(C[S+]([O-])c2nc3ccccc3[nH]2)c1C (stereo not drawn) [Rabeprazole sodium salt] | -0.25 | 
CNCC[C@@H](Oc1ccccc1C)c1ccccc1 [Tomoxetine hydrochloride] | 1.63 | 
Cc1ccc(C(=O)C(C)CN2CCCCC2)cc1 (stereo not drawn) [Tolperisone hydrochloride] | 0.73 | 
O=C(CCCCC(=O)Nc1c(I)cc(I)c(C(=O)O)c1I)Nc1c(I)cc(I)c(C(=O)O)c1I [Iodipamide] | 0.65 | 
CCCNC(C)C(=O)Nc1c(C)csc1C(=O)OC (stereo not drawn) [Articaine hydrochloride] | -0.33 | 
NCCc1cc[nH]n1 [Betazole hydrochloride] | 0 | 
COc1cccc(N(C)C(=S)Oc2ccc3c(c2)CCCC3)n1 [Liranaftate] | 0.84 | 
Cc1c(NC(C)C)c(=O)n(-c2ccccc2)n1C [Isopyrin hydrochloride] | -0.27 | 
CC(C[N+](C)(C)C)OC(N)=O (stereo not drawn) [Bethanechol chloride] | -1.17 | 

By substructure, the entries above with a tert-butyl group
SMILES | eye size Z-score | eye size Z-score (female)
CC(C)(C)NCC(O)COc1cccc2c1CC(O)C(O)C2 (stereo not drawn) [Nadolol] | 0.19 | 
CC/C=C(\C(=O)N[C@@H]1C(=O)N2C(C(=O)OCOC(=O)C(C)(C)C)=C(COC(N)=O)CS[C@H]12)c1csc(N)n1 [Cefcapene pivoxil hydrochloride monohydrate] | 0.8 | 

Next part:

SMILES | eye size Z-score | eye size Z-score (female)
COc1ccc2c(c1)C(=O)N(CCc1ccc(S(=O)(=O)NC(=O)NC3CCCCC3)cc1)C(=O)C2(C)C [Gliquidone] | 1.43 | 
CN(C)CCN(Cc1ccc(Cl)cc1)c1ccccn1 [Chloropyramine hydrochloride] | -0.48 | 
NS(=O)(=O)Cc1noc2ccccc12 [Zonisamide] | 1.22 | 
COc1ccc([C@@H]2Sc3ccccc3N(CCN(C)C)C(=O)[C@@H]2OC(C)=O)cc1 [Diltiazem hydrochloride] | 0.06 | 
Cc1cn([C@H]2C[C@H](N=[N+]=[N-])[C@@H](CO)O2)c(=O)[nH]c1=O [Zidovudine] | 0.03 | 
Cc1ccc(C)c(OCCCC(C)(C)C(=O)O)c1 [Gemfibrozil] | 0.18 | 
O=C(O)C[C@H](O)C[C@H](O)/C=C/c1c(C2CC2)nc2ccccc2c1-c1ccc(F)cc1 [Pitavastatin calcium] | -0.05 | 
O=C(CCCN1CCC(O)(c2ccc(Cl)cc2)CC1)c1ccc(F)cc1 [Haloperidol] | 0.09 | 
CNCCC=C1c2ccccc2C=Cc2ccccc21 [Norcyclobenzaprine] | 0.64 | 
CC1(C)S[C@@H]2[C@H](NC(=O)[C@H](N)c3ccccc3)C(=O)N2[C@H]1C(=O)OC1OC(=O)c2ccccc21 (stereo partly drawn) [Talampicillin hydrochloride] | 0.55 | 
NC(=O)OCC(O)COc1ccc(Cl)cc1 (stereo not drawn) [Chlorphensin carbamate] | -0.33 | 
COC(=O)CCc1ccc(OCC(O)CNC(C)C)cc1 (stereo not drawn) [Esmolol hydrochloride] | -0.62 | 
CN1C(C(=O)Nc2ccccn2)=C(O)c2ccccc2S1(=O)=O [Piroxicam] | -1.2 | 
COCCOC(=O)C1=C(C)NC(C)=C(C(=O)OC(C)C)C1c1cccc([N+](=O)[O-])c1 (stereo not drawn) [Nimodipine] | 0.17 | 
C[C@]12CCC(=O)C=C1C=C[C@@H]1[C@@H]2CC[C@@]2(C)[C@H]1CC[C@@]21CCC(=O)O1 [Canrenone] | 0.41 | 
CC(C)NC(=N)NC(=N)Nc1ccc(Cl)cc1 [Proguanil hydrochloride] | 1.08 | 
COc1ccc2c3c1O[C@H]1C[C@@H](O)C=C[C@@]31CCN(C)C2 [Galanthamine hydrobromide] | -0.12 | 
Cc1nnc(SCC2=C(C(=O)O)N3C(=O)[C@@H](NC(=O)Cn4cnnn4)[C@H]3SC2)s1 [Cefazolin sodium salt] | 1.28 | 
Cc1cc(C#N)cc(C)c1Oc1nc(Nc2ccc(C#N)cc2)nc(N)c1Br [Etravirine] | 0.32 | 
O=c1[nH]c(=O)n([C@H]2C[C@H](O)[C@@H](CO)O2)cc1C(F)(F)F [Trifluridine] | -0.03 | 
CCCCCCCCNC(C)C(O)c1ccc(SC(C)C)cc1 (stereo not drawn) [Suloctidil] | 0.46 | 
CC(=O)CC(c1ccc([N+](=O)[O-])cc1)c1c(O)c2ccccc2oc1=O (stereo not drawn) [Acenocoumarol] | 0.41 | 
S=c1[nH]cnc2nc[nH]c12 [Mercaptopurine] | 0.25 | 

— the supplement of paper PMC11542785
